Results deposited as PubChem BioAssay AID504804 (Drosophila RNAi Screening Center, 2011).

Assay: 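dsRNAs that improve Kc cell survival under doxorubicin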 (primary screen)
Cell system: Drosophila Kc cells
Reagent: long dsRNA against Drosophila genes, 0.5 µg dsRNA per well
Timing: 96 h (48 h knock-down, then 48 h drug)
Challenge: doxorubicin 5 µg/ml for 48 h, added 48 h after dsRNA
Detection: 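Viability measured as cellular ATP by luminescence after 48 h knock-down then 48 h doxorubicin at 5 µg/ml; unnormalised plate counts for each replicate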
Reading the numbers: raw ATP luminescence: higher = more viable cells, protection from doxorubicin
Rule for the call: 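z-score of 2 or more over plate mean in both duplicates, retained only when retests and separate dsRNAs confirm the protection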
The screen tested about 19,000 reagents; shown is a random part of those that have a named target and a result. Of all reagents, 47 (0.25%) got an active call. 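Signals are raw, not normalised; exact z-scores behind calls not deposited; actives needed confirmation, so some wells reaching 2 SD are inactive.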 Entries without a mark were called inactive.

Silencing of CG14881 [SID104194797] came out at: raw ATP luminescence, replicate 1 = 59890; raw ATP luminescence, replicate 2 = 63820.
Silencing of CG11670 [SID104194134] gave: raw ATP luminescence, replicate 1 = 77820; raw ATP luminescence, replicate 2 = 70000.
c(2)M [SID104181714] gave raw ATP luminescence, replicate 1 = 1.11e5; raw ATP luminescence, replicate 2 = 67370.
Knock-down of cact [SID104183293] gave: raw ATP luminescence, replicate 1 = 72853; raw ATP luminescence, replicate 2 = 48160.
Against Unc50 [SID104196353], the entry reads raw ATP luminescence, replicate 1 = 49423; raw ATP luminescence, replicate 2 = 56177.
For CG6592 [SID104190461], the values are raw ATP luminescence, replicate 1 = 71107; raw ATP luminescence, replicate 2 = 80890.
Against Charon [SID104180471], the entry reads raw ATP luminescence, replicate 1 = 90280; raw ATP luminescence, replicate 2 = 60720.
Ent2 [SID104181916] scored raw ATP luminescence, replicate 1 = 1.25e5; raw ATP luminescence, replicate 2 = 82267.
For Ubx [SID104196683], the values are raw ATP luminescence, replicate 1 = 60680; raw ATP luminescence, replicate 2 = 54830.
After knock-down of CG13059 [SID104189734], the record shows raw ATP luminescence, replicate 1 = 45383; raw ATP luminescence, replicate 2 = 30040.
For Sem1 [SID104182074] the deposit lists raw ATP luminescence, replicate 1 = 20220; raw ATP luminescence, replicate 2 = 20250.
Against msl-1 [SID104183365], the entry reads raw ATP luminescence, replicate 1 = 39773; raw ATP luminescence, replicate 2 = 32090.

2 entries from above, reformatted.
Gene	PubChem SID	raw ATP luminescence, replicate 1	raw ATP luminescence, replicate 2
Ent2	SID104181916	1.25e5	82267
Ubx	SID104196683	60680	54830
